According to patent US20240216513A1, “FATTY ACID-BIFUNCTIONAL DEGRADER CONJUGATES AND THEIR METHODS OF USE” (Novartis AG, priority 2021, published 2024):
At least one structure is not confirmed: it was looked up by name or label, or the drawing left a doubt.

Protein sequences, listed by entry. Tags and fused reporters are not part of them.
UniProt Q06187, whole entry C481S: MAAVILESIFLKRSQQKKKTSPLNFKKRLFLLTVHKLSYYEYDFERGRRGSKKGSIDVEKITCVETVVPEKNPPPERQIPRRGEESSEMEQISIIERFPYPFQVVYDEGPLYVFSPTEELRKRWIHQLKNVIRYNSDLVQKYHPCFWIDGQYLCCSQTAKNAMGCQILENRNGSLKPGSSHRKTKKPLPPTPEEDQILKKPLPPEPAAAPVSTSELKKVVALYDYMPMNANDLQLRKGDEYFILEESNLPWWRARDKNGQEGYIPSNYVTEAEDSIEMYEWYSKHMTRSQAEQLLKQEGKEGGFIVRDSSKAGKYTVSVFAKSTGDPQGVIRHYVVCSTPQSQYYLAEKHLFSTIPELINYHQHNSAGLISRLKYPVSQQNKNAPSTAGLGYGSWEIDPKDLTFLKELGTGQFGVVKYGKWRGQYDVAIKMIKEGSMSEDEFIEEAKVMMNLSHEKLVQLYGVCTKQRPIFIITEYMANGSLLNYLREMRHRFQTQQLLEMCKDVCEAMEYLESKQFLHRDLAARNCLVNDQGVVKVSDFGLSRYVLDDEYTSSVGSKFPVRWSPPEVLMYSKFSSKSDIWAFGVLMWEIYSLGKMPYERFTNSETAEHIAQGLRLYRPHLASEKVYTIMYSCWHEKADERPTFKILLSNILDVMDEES

Assays:
BTK C481S = target: T1, BTK C481S (Homo sapiens, UniProt Q06187, C481S); experiment: PD screen in TMD8 BTK C481S mutant tumor-bearing mice, BTK levels and compound concentrations in blood and tumor; format: in vivo, mouse; conditions: i.v.
T1 construct: endogenous in cells; host or cells: TMD8 BTK C481S mutant tumour xenografts in mice
Procedure: All animal studies were conducted in accordance with ethics and procedures covered by permit nos. BS-1975 issued by the Kantonales Veterinäramt Basel-Stadt and in strict adherence to guidelines of the Eidgenössisches Tierschutzgesetz and the Eidgenössische Tierschutzverordnung, Switzerland. All animals had access to food and water ad libitum and were identified with transponders. They were housed in a specific pathogen-free facility with a 12-h light/12-h dark cycle. For PD screen experiments in TMD8 BTK C481S mutant tumor-bearing mice, FAC was injected once. Animals were randomized into groups of 2 and tissue samples collected at day 0, 4, 7 and in some studies day 10 as well. Blood samples were collected and tumors were excised, weighed, frozen in liquid nitrogen and cryogenic dry pulverized with the CryoPrep™ system (model CP-02, Covaris). Concentrations of compounds in blood and tumors were determined by UPLC/MS-MS and BTK levels were analyzed by Meso Scale Discovery.

TMD8 tumors = experiment: Efficacy in ectopic (subcutaneous) TMD8 tumor-bearing SCID/BEIGE mice, tumor volume; format: in vivo, mouse; conditions: 25 umol/kg
Procedure: All animal experiments were performed according to procedures covered by permit number BS-1974, BS-1975 and BS-2904 issued by the Kantonales Veterinäramt Basel-Stadt and strictly adhered to the Eidgenössisches Tierschutzgesetz and the Eidgenössische Tierschutzverordnung. Female Sprague Dawley rat were obtained from Charles Rivers (Germany), female Balb/c mice from Charles Rivers (Italy) and female SCID/BEIGE (C.B-Igh-1b/GbmsTac-Prkdcscid-Lystbg N7) mice from Taconic. All the animals were housed in a pathogen-controlled environment with access to food and water ad libitum and they were identified with transponders.
Subcutaneous TMD8 tumors were induced by injecting tumor cells expanded in vitro in the right flank of SCID/BEIGE mice. As soon as the injection was finished, antagonization (naloxone, flumazenil and atipamezole injected s.c.) was injected and mice are put on a warming pad for recovery and carefully checked during that time.
For PK experiments, non-tumor bearing mice or rats were treated once (10 mL/kg) with a compound either i.v. or s.c. Serial blood samplings from the tail vein (5-20 μl) were collected during the course of the experiment. […] Concentrations of compound in blood and tissues were determined simultaneously by UPLC/MS-MS. BTK and IL-10 levels in tumor were determined by Meso Scale Discovery (MSD).

Compound | Duration of BTK degradation in mouse ≥90% (BTK C481S; 50 umol/kg) | Dosing frequency to achieve sustained 90% regression (TMD8 tumors; i.v.) | Dosing frequency to achieve sustained 90% regression (TMD8 tumors; s.c.) | Duration of BTK degradation in mouse ≥90% (BTK C481S; 25 umol/kg)
CCCCCCCCCCCN(C(=O)CCCCCCCCCC(=O)O)C(CCC(=O)NCCOCCOCCOCCOCCOCCOCCOCCOCCOCCOCCOCCOCCC(=O)N1CCN(CC(=O)OC(C)(C)c2ccc(C(=O)Nc3cc(F)cc(-c4ncnc5[nH]c(-c6ccc(CCN7CCC8(CC7)CCN(C(=O)c7ccc(OC)c(N9CCC(=O)NC9=O)c7)CC8)cc6)cc45)c3C)c(F)c2)CC1)C(=O)O (centres unmarked) [Example A22, 44-Carboxy-1-(4-(2-((2-(4-((3-(6-(4-(2-(9-(3-(2,4-dioxotetrahydropyrimidin-1(2H)-yl)-4-methoxybenzoyl)-3,9-diazaspiro[5.5]undecan-3-yl)ethyl)phenyl)-7H-pyrrolo[2,3-d]pyrimidin-4-yl)-5-fluoro-2-methylphenyl)carbamoyl)-3-fluorophenyl)propan-2-yl)oxy)-2-oxoethyl)piperazin-1-yl)-1,41,46-trioxo-45-undecyl-4,7,10,13,16,19,22,25,28,31,34,37-dodecaoxa-40,45-diazahexapentacontan-56-oic acid] | <4 days |  |  | 
CCCCCCCCCCCN(C(=O)CCCCCCCCCC(=O)O)C(CCC(=O)NCCOCCOCCOCCOCCOCCOCCOCCOCCOCCOCCOCCOCCC(=O)NCC(=O)OC(C)(C)c1ccc(C(=O)Nc2cc(F)cc(-c3ncnc4[nH]c(-c5ccc(CCN6CCC7(CC6)CCN(C(=O)c6ccc(OC)c(N8CCC(=O)NC8=O)c6)CC7)cc5)cc34)c2C)c(F)c1)C(=O)O (centres unmarked) [Example A1, 50-Carboxy-2-(4-((3-(6-(4-(2-(9-(3-(2,4-dioxotetrahydropyrimidin-1(2H)-yl)-4-methoxybenzoyl)-3,9-diazaspiro[5.5]undecan-3-yl)ethyl)phenyl)-7H-pyrrolo[2,3-d]pyrimidin-4-yl)-5-fluoro-2-methylphenyl)carbamoyl)-3-fluorophenyl)-2-methyl-4,7,47,52-tetraoxo-51-undecyl-3,10,13,16,19,22,25,28,31,34,37,40,43-tridecaoxa-6,46,51-triazadohexacontan-62-oic acid] |  | q3w | q3w | 7 days
CCCCCCCCCCCN(C(=O)CCCCCCCCCC(=O)O)C(CCC(=O)NCCOCCOCCOCCOCCOCCOCCOCCOCCC(=O)NCC(=O)OC(C)(C)c1ccc(C(=O)Nc2cc(F)cc(-c3ncnc4[nH]c(-c5ccc(CCN6CCC7(CC6)CCN(C(=O)c6ccc(OC)c(N8CCC(=O)NC8=O)c6)CC7)cc5)cc34)c2C)c(F)c1)C(=O)O (centres unmarked) [Example A8, 38-Carboxy-2-(4-((3-(6-(4-(2-(9-(3-(2,4-dioxotetrahydropyrimidin-(2H)-yl)-4-methoxybenzoyl)-3,9-diazaspiro[5.5]undecan-3-yl)ethyl)phenyl)-7H-pyrrolo[2,3-d]pyrimidin-4-yl)-5-fluoro-2-methylphenyl)carbamoyl)-3-fluorophenyl)-2-methyl-4,7,35,40-tetraoxo-39-undecyl-3,10,13,16,19,22,25,28,31-nonaoxa-6,34,39-triazapentacontan-50-oic acid] |  |  |  | 4 days
